Assay results taken from the supplement of paper PMC10849652.
This is one part of the list.

By UniProt entry, the sequences of proteins in these tests, tags left out. Where a name states a change or a piece, a line headed by the entry shows the natural chain unless it says otherwise.
UniProt P49448: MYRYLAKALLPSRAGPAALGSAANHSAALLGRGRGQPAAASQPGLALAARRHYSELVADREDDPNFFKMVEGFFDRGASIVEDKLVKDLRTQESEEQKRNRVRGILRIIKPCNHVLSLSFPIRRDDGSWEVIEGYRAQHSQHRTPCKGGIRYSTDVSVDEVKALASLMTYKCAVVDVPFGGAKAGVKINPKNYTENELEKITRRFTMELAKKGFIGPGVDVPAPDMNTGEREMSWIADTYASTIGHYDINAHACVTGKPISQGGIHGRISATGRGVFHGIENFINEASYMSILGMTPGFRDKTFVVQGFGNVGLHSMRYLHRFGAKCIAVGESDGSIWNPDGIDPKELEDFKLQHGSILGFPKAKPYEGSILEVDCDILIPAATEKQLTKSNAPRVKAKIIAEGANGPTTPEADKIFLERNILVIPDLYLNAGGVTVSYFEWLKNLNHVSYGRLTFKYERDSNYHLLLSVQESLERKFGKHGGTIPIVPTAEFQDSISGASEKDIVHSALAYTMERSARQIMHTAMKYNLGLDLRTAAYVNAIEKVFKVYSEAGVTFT
UniProt Q96EK6: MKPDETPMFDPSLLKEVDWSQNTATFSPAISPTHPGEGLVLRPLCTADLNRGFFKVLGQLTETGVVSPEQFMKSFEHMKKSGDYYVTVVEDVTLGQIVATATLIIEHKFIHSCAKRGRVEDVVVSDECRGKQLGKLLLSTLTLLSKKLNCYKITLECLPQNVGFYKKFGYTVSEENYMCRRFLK
UniProt P62879, whole entry, looked up: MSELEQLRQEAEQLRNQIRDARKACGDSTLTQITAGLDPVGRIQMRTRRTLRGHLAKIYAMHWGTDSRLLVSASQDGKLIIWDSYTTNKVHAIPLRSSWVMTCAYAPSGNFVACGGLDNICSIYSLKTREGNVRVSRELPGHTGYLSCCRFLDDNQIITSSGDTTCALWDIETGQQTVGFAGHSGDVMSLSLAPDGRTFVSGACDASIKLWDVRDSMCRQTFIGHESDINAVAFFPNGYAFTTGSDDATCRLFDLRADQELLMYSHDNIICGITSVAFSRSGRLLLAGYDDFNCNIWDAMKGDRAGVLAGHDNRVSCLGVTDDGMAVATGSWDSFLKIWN
UniProt Q9BRT9, whole entry, looked up: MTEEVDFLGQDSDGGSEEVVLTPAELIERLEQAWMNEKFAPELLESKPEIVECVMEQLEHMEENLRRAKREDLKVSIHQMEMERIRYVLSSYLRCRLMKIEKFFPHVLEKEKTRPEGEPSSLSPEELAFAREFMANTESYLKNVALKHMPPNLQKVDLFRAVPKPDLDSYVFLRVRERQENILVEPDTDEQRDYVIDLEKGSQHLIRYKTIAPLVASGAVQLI
UniProt O95749: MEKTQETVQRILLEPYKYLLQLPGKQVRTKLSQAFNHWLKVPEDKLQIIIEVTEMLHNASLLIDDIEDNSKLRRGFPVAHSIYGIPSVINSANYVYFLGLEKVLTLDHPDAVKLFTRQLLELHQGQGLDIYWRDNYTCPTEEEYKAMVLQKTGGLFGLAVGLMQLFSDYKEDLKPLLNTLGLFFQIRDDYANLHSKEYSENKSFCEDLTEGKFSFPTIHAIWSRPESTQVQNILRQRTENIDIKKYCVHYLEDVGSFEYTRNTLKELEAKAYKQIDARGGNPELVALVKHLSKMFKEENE
UniProt Q9UJJ9: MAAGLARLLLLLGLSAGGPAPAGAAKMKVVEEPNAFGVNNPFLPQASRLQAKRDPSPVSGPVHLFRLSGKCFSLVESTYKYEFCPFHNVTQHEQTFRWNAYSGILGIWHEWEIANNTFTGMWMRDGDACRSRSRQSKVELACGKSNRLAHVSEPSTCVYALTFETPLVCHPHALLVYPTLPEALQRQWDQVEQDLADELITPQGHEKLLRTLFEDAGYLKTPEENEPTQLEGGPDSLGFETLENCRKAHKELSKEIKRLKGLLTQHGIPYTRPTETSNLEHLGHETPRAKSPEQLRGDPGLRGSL
UniProt Q9HC38: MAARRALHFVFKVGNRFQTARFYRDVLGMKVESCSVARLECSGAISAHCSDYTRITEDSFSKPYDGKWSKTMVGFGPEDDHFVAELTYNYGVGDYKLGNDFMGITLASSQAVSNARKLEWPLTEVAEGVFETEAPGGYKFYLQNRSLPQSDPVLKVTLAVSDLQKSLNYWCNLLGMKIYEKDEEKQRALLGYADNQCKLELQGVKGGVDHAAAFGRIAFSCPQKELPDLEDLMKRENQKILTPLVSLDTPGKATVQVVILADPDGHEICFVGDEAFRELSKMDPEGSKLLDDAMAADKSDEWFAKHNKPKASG
UniProt O00461: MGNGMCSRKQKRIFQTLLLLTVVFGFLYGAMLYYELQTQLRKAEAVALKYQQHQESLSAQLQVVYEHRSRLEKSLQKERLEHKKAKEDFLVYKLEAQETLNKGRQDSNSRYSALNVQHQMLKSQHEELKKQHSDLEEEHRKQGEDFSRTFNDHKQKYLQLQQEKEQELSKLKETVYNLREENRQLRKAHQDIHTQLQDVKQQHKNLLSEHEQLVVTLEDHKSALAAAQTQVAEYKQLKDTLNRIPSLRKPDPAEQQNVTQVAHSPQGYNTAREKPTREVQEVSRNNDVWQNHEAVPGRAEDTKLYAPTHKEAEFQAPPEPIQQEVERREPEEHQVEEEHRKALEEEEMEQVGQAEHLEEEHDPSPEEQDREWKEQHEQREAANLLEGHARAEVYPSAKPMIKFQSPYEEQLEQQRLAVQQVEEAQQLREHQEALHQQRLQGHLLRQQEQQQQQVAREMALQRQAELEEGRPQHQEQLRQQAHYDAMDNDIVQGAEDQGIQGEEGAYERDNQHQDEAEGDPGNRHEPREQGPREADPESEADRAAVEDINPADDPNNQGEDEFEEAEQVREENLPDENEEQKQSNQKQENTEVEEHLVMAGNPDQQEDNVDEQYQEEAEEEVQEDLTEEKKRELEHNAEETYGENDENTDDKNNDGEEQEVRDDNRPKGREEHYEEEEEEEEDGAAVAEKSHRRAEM
UniProt Q08378: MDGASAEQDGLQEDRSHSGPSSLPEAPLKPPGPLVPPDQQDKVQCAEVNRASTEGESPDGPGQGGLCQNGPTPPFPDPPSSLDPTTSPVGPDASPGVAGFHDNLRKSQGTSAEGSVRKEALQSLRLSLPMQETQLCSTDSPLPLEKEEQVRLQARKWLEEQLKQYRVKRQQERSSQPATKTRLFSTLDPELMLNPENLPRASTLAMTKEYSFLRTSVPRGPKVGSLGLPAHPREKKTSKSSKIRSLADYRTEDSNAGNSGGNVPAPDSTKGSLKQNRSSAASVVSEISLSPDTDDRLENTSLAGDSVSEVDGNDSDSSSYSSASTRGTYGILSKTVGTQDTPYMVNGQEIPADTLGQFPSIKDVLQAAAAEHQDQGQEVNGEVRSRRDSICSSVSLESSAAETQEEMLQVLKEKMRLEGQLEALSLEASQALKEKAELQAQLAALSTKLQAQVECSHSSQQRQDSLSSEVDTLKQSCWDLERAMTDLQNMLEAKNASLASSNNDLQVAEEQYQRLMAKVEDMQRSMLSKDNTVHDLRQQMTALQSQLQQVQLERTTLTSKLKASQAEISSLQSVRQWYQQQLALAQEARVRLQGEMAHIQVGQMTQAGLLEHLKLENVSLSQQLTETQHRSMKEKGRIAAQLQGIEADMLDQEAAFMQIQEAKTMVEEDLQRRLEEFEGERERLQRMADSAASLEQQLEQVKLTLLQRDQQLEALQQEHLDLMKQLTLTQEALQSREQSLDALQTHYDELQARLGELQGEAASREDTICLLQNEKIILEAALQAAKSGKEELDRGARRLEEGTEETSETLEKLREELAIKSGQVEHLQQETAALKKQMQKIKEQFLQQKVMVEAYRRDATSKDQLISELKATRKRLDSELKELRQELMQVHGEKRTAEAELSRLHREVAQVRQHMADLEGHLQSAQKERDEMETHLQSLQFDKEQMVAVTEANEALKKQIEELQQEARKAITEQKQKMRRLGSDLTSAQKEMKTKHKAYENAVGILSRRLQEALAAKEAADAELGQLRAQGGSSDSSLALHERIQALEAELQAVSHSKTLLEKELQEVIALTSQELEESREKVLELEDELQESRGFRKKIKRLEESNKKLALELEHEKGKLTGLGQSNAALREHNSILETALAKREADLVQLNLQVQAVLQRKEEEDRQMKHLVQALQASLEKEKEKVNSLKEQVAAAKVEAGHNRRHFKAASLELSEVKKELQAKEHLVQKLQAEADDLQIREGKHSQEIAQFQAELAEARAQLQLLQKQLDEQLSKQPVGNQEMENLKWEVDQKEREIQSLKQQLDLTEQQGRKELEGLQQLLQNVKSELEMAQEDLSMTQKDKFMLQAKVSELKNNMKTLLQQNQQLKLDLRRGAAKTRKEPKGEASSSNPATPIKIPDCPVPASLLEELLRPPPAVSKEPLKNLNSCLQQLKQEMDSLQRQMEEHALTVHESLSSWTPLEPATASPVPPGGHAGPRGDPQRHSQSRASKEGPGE
UniProt Q9BRX5: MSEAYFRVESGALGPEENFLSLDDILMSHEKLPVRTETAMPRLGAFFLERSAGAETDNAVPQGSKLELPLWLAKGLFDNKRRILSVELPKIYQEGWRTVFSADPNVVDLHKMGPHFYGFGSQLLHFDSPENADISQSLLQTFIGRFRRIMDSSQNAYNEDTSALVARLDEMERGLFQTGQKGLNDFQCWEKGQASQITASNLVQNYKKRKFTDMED
UniProt Q9Y3E0: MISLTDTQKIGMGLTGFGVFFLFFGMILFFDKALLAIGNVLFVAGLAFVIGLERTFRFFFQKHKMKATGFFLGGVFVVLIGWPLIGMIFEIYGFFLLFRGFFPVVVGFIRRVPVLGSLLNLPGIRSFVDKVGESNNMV
UniProt O60547: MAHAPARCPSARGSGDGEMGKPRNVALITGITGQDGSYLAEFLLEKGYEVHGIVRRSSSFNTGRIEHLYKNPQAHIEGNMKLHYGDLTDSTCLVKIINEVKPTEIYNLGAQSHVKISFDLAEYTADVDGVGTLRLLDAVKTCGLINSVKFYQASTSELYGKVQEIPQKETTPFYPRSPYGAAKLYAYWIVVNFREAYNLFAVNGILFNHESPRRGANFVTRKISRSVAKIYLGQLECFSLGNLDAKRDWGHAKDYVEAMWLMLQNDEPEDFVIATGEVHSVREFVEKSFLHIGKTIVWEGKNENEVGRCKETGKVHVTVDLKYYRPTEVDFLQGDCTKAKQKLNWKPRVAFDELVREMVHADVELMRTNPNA
UniProt Q9BYB4: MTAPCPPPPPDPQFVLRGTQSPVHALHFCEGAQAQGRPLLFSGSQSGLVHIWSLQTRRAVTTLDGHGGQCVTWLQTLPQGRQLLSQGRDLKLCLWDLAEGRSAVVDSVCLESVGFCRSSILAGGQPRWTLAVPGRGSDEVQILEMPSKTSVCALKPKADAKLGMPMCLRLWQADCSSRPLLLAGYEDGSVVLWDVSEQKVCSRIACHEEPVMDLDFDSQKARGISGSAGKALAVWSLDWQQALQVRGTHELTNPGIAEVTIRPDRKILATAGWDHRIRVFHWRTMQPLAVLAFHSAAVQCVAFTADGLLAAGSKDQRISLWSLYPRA
UniProt P46926: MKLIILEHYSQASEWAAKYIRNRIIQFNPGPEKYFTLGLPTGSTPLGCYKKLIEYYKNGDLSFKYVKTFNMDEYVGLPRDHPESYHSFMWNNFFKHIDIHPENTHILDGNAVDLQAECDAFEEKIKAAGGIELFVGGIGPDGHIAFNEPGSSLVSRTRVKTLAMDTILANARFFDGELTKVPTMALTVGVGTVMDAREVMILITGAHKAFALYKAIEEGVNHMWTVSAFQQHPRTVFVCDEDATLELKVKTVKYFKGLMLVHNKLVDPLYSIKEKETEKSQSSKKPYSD
UniProt Q9H3K2: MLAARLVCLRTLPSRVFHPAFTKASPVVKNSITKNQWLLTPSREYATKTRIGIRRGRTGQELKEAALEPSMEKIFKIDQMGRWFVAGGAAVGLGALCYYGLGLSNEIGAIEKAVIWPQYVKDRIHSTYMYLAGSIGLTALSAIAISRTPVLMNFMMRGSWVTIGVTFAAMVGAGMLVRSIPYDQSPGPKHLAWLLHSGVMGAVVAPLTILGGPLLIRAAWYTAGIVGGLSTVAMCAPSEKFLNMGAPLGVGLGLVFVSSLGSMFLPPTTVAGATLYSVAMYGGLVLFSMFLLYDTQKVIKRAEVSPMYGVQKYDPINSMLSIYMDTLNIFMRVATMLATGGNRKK

Columns and labels:
Assay in all cases: log2 fold change, soluble protein after heating vs DMSO (PISA); higher = thermal stabilisation; K562 lysate, 10 uM; active = over 0.2 and 3.5 SD of the protein, either way, in both replicates (recomputed)
erlotinib = compound: C#Cc1cccc(Nc2ncnc3cc(OCCOC)c(OCCOC)cc23)c1 [erlotinib]
Procedure, shortened: (§1)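 Dounce homogenisation of K562 pellets in PBS pH 7.4 with 1 mM MgCl2 produced a crude extract, used at 1 mg/mL protein. Exposure to 10 μM compound lasted 30 min, and aliquots were then heated for 3 min across 48°C-58°C, pooled and brought to 0.5% NP-40 at 4°C. The supernatant after 21,000xg for 90 min was quantified by TMTpro 16plex LC-MS/MS with channel sums equalised. Duplicate values are given as log-two fold change in thermal stability relative to solvent controls.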

[1] = compound: C/C(=N\NC(=O)C1=CC(=CC=C1)S(=O)(=O)N2CCOCC2)/C3=C(C=CC(=C3)Cl)O
Procedure, shortened: as §1

[2] = compound: C1=CC(=CC=C1C2=NC3=C(N2)C=C(C=C3)C(=O)N)OC4=CC=C(C=C4)Cl
Procedure, shortened: as §1

[3] = compound: C1=CC2=C(C=CC(=C2)/C=C\3/C(=O)NC(=NCC4=CC=CS4)S3)N=C1
Procedure, shortened: as §1

[4] = compound: C1=CC2=NC=CN=C2C=C1/C=C/3\C(=O)NC(=O)S3
Procedure, shortened: as §1

[5] = compound: C1=CC=C(C=C1)C2=NC(=C(N2)C3=CC=NC=C3)C4=CC(=C(C=C4)Cl)O
Procedure, shortened: as §1

[6] = compound: C1=CC=C2C(=C1)C3=NNC4=CC=CC(=C43)C2=O
Procedure, shortened: as §1

[7] = compound: C1CCN(C1)C(=O)NC2=CC=CC(=C2)NC3=NC=C(C(=N3)NCCC4=CN=CN4)Br
Procedure, shortened: as §1

[8] = compound: C1CN(CCC1(CC2=CC=C(C=C2)Cl)N)C3=NC=NC4=C3C=CN4
Procedure, shortened: as §1

IRAK-1-4 Inhibitor I = compound: C1COCCN1CCN2C3=CC=CC=C3N=C2NC(=O)C4=CC(=CC=C4)[N+](=O)[O-] [IRAK-1-4 Inhibitor I]
Procedure, shortened: as §1

ibrutinib = compound: C=CC(=O)N1CCC[C@@H](n2nc(-c3ccc(Oc4ccccc4)cc3)c3c(N)ncnc32)C1 [ibrutinib]
Procedure, shortened: as §1

[9] = compound: CC(=O)c1cnc2ccc(-c3cc(Cl)c(O)c(Cl)c3)nc2c1N[C@H]1CC[C@H](CN(C)C)CC1
Procedure, shortened: as §1

ralimetinib = compound: CC(C)(C)Cn1c(N)nc2ccc(-c3[nH]c(C(C)(C)C)nc3-c3ccc(F)cc3)nc21 [ralimetinib]
Procedure, shortened: as §1

[10] = compound: CC(C)(O)CC(=O)NCCn1ccc2ncnc(Nc3ccc(Oc4cccc(C(F)(F)F)c4)c(Cl)c3)c21
Procedure, shortened: as §1

[11] = compound: CC(C)C1=C2N=C(C=C(N2N=C1)NCC3=CC=CC=C3)NCCCCCCN
Procedure, shortened: as §1

[12] = compound: CC1=C(C(CC(=O)N1)C2=CC=C(C=C2)C(F)(F)F)C(=O)NC3=C(C=C4C(=C3)C=NN4)F
Procedure, shortened: as §1

[13] = compound: CC1=C(C2=C(C=C1)C(=O)C3=CC=CC=C3N2CCCN)C
Procedure, shortened: as §1

[14] = compound: CC1=C(C=C(C=C1)NC(=O)C2=CC(=CC=C2)C(C)(C)C#N)NC3=CC4=C(C=C3)N=CN(C4=O)C
Procedure, shortened: as §1

[15] = compound: CC1=C(C=C(C=C1)NC(=O)C2=CC(=CC=C2)N(C)C)NC(=O)C3=CC=C(C=C3)O
Procedure, shortened: as §1

[16] = compound: CC1=CC=C(C=C1)SC2=C3C=C(SC3=CN=C2)C(=O)N
Procedure, shortened: as §1

Measured: log2 fold change

GLUD2 (UniProt P49448)
inactive: erlotinib -0.017 | [1] -0.016 | [2] -0.053 | [3] 0.028 | [4] -0.057 | [5] -0.014 | [6] -0.09 | [7] -0.119 | [8] 0.029 | IRAK-1-4 Inhibitor I 0.113 | ibrutinib -0.063 | [9] 0.063 | ralimetinib 0.02 | [10] -0.043 | [11] -0.012 | [12] 0.018 | [13] -0.028 | [14] 0.061 | [15] 0.001 | [16] 0.033

GNPNAT1 (UniProt Q96EK6)
inactive: erlotinib -0.022 | [1] 0.047 | [2] 0.016 | [3] 0.014 | [4] 0.007 | [5] 0.028 | [6] 0.068 | [7] -0.026 | [8] 0.013 | IRAK-1-4 Inhibitor I -0.03 | ibrutinib 0.051 | [9] -0.021 | ralimetinib 0.012 | [10] -0.008 | [11] 0.035 | [12] 0.009 | [13] 0.019 | [14] 0.078 | [15] -0.027 | [16] -0.014

GNB2 (UniProt P62879)
inactive: erlotinib 0.013 | [1] 0.063 | [2] -0.068 | [3] 0.021 | [4] 0.035 | [5] 0.022 | [6] -0.008 | [7] 0.03 | [8] 0.035 | IRAK-1-4 Inhibitor I 0.006 | ibrutinib -0.006 | [9] 0.023 | ralimetinib 0 | [10] 0.024 | [11] -0.029 | [12] -0.042 | [13] 0.032 | [14] 0.009 | [15] -0.041 | [16] 0.039

GINS4 (UniProt Q9BRT9)
inactive: erlotinib 0.006 | [1] 0.018 | [2] 0.016 | [3] 0.047 | [4] -0.022 | [5] 0.011 | [6] 0.031 | [7] 0 | [8] 0.011 | IRAK-1-4 Inhibitor I -0.004 | ibrutinib 0.001 | [9] -0.004 | ralimetinib -0.011 | [10] -0.034 | [11] -0.001 | [12] -0.011 | [13] 0.012 | [14] 0.022 | [15] 0.012 | [16] -0.015

GOPC (UniProt Q9HD26)
inactive: erlotinib -0.023 | [1] -0.084 | [2] 0.01 | [3] 0.001 | [4] -0.005 | [5] -0.003 | [6] -0.02 | [7] -0.018 | [8] -0.013 | IRAK-1-4 Inhibitor I -0.036 | ibrutinib 0.016 | [9] 0.007 | ralimetinib 0.022 | [10] 0.011 | [11] 0.014 | [12] 0.026 | [13] -0.042 | [14] -0.036 | [15] 0.03 | [16] -0.001

GGPS1 (UniProt O95749)
inactive: erlotinib -0.03 | [1] -0.018 | [2] -0.009 | [3] 0.031 | [4] 0.001 | [5] -0.022 | [6] -0.028 | [7] 0.001 | [8] 0 | IRAK-1-4 Inhibitor I -0.015 | ibrutinib 0.01 | [9] 0.012 | ralimetinib 0.004 | [10] 0.023 | [11] -0.005 | [12] 0.003 | [13] -0.031 | [14] -0.005 | [15] -0.04 | [16] 0.044

Copied from above (4 entries):
GNB2 (UniProt P62879)
inactive: erlotinib 0.013 | [1] 0.063 | [2] -0.068 | [3] 0.021 | [4] 0.035 | [5] 0.022 | [6] -0.008 | [7] 0.03 | [8] 0.035 | IRAK-1-4 Inhibitor I 0.006 | ibrutinib -0.006 | [9] 0.023 | ralimetinib 0 | [10] 0.024 | [11] -0.029 | [12] -0.042 | [13] 0.032 | [14] 0.009 | [15] -0.041 | [16] 0.039

GINS4 (UniProt Q9BRT9)
inactive: erlotinib 0.006 | [1] 0.018 | [2] 0.016 | [3] 0.047 | [4] -0.022 | [5] 0.011 | [6] 0.031 | [7] 0 | [8] 0.011 | IRAK-1-4 Inhibitor I -0.004 | ibrutinib 0.001 | [9] -0.004 | ralimetinib -0.011 | [10] -0.034 | [11] -0.001 | [12] -0.011 | [13] 0.012 | [14] 0.022 | [15] 0.012 | [16] -0.015

GOPC (UniProt Q9HD26)
inactive: erlotinib -0.023 | [1] -0.084 | [2] 0.01 | [3] 0.001 | [4] -0.005 | [5] -0.003 | [6] -0.02 | [7] -0.018 | [8] -0.013 | IRAK-1-4 Inhibitor I -0.036 | ibrutinib 0.016 | [9] 0.007 | ralimetinib 0.022 | [10] 0.011 | [11] 0.014 | [12] 0.026 | [13] -0.042 | [14] -0.036 | [15] 0.03 | [16] -0.001

GGPS1 (UniProt O95749)
inactive: erlotinib -0.03 | [1] -0.018 | [2] -0.009 | [3] 0.031 | [4] 0.001 | [5] -0.022 | [6] -0.028 | [7] 0.001 | [8] 0 | IRAK-1-4 Inhibitor I -0.015 | ibrutinib 0.01 | [9] 0.012 | ralimetinib 0.004 | [10] 0.023 | [11] -0.005 | [12] 0.003 | [13] -0.031 | [14] -0.005 | [15] -0.04 | [16] 0.044

More records follow:

GNPTG (UniProt Q9UJJ9)
inactive: erlotinib -0.056 | [1] 0.188 | [2] 0.158 | [3] 0.047 | [4] -0.034 | [5] 0.014 | [6] 0.007 | [7] 0.015 | [8] 0.106 | IRAK-1-4 Inhibitor I -0.084 | ibrutinib 0.172 | [9] -0.016 | ralimetinib 0.064 | [10] 0.061 | [11] -0.151 | [12] 0.103 | [13] 0.039 | [14] -0.114 | [15] 0.104 | [16] -0.016

GLOD4 isoform 2 (UniProt Q9HC38)
inactive: erlotinib -0.005 | [1] 0.02 | [2] -0.005 | [3] -0.007 | [4] 0.006 | [5] 0.005 | [6] -0.007 | [7] 0.004 | [8] 0 | IRAK-1-4 Inhibitor I -0.018 | ibrutinib -0.009 | [9] 0 | ralimetinib -0.028 | [10] 0.024 | [11] -0.018 | [12] -0.037 | [13] 0.028 | [14] -0.018 | [15] -0.004 | [16] 0.006

GOLIM4 (UniProt O00461)
inactive: erlotinib -0.005 | [1] 0.01 | [2] 0.009 | [3] 0.028 | [4] 0.006 | [5] -0.017 | [6] -0.07 | [7] -0.014 | [8] -0.021 | IRAK-1-4 Inhibitor I 0.003 | ibrutinib 0.014 | [9] 0.048 | ralimetinib 0.003 | [10] -0.053 | [11] -0.006 | [12] 0.038 | [13] -0.022 | [14] 0.002 | [15] -0.033 | [16] -0.01

GOLGA3 (UniProt Q08378)
inactive: erlotinib 0.004 | [1] 0.032 | [2] 0.03 | [3] 0.022 | [4] -0.007 | [5] -0.004 | [6] 0.007 | [7] 0.012 | [8] 0.019 | IRAK-1-4 Inhibitor I 0.007 | ibrutinib 0.033 | [9] 0 | ralimetinib 0.007 | [10] -0.024 | [11] -0.016 | [12] 0.007 | [13] -0.004 | [14] 0.005 | [15] -0.002 | [16] -0.011

GINS3 (UniProt Q9BRX5)
inactive: erlotinib -0.039 | [1] 0.006 | [2] -0.053 | [3] 0.015 | [4] -0.031 | [5] -0.011 | [6] 0.007 | [7] 0.016 | [8] 0.073 | IRAK-1-4 Inhibitor I -0.012 | ibrutinib 0.088 | [9] 0.024 | ralimetinib 0.039 | [10] 0.024 | [11] -0.028 | [12] 0.013 | [13] 0.061 | [14] -0.007 | [15] 0.022 | [16] 0.004

GOLT1B (UniProt Q9Y3E0)
inactive: erlotinib 0.033 | [1] 0.021 | [2] -0.023 | [3] 0.082 | [4] -0.024 | [5] 0.037 | [6] -0.007 | [7] -0.03 | [8] -0.011 | IRAK-1-4 Inhibitor I -0.006 | ibrutinib -0.063 | [9] 0.017 | ralimetinib 0.014 | [10] -0.008 | [11] 0.015 | [12] 0.042 | [13] -0.024 | [14] -0.039 | [15] -0.02 | [16] -0.082

GMDS (UniProt O60547)
inactive: erlotinib 0.017 | [1] 0.005 | [2] 0.029 | [3] -0.054 | [4] -0.012 | [5] -0.023 | [6] -0.043 | [7] 0.019 | [8] 0.036 | IRAK-1-4 Inhibitor I 0.01 | ibrutinib 0.042 | [9] -0.018 | ralimetinib 0.025 | [10] 0.01 | [11] -0.023 | [12] 0.031 | [13] 0.022 | [14] 0.027 | [15] 0.008 | [16] 0.015

GNB1L (UniProt Q9BYB4)
inactive: erlotinib -0.03 | [1] 0.013 | [2] 0.014 | [3] -0.007 | [4] -0.003 | [5] -0.028 | [6] 0.013 | [7] -0.04 | [8] 0.038 | IRAK-1-4 Inhibitor I 0.009 | ibrutinib -0.022 | [9] -0.016 | ralimetinib 0.024 | [10] -0.014 | [11] -0.014 | [12] -0.001 | [13] 0.023 | [14] 0.094 | [15] -0.068 | [16] -0.019

GNPDA1 (UniProt P46926)
inactive: erlotinib -0.021 | [1] 0.013 | [2] -0.01 | [3] -0.006 | [4] 0.002 | [5] 0.014 | [6] 0.027 | [7] 0.016 | [8] -0.03 | IRAK-1-4 Inhibitor I 0.013 | ibrutinib 0.024 | [9] 0 | ralimetinib 0.026 | [10] -0.033 | [11] -0.03 | [12] 0.007 | [13] 0.011 | [14] -0.023 | [15] -0.007 | [16] -0.016

GHITM (UniProt Q9H3K2)
inactive: erlotinib 0.011 | [1] -0.064 | [2] -0.047 | [3] 0.02 | [4] 0.012 | [5] -0.004 | [6] -0.021 | [7] 0.005 | [8] 0.014 | IRAK-1-4 Inhibitor I 0.013 | ibrutinib -0.009 | [9] 0.015 | ralimetinib -0.008 | [10] -0.028 | [11] 0.012 | [12] -0.016 | [13] -0.006 | [14] 0.053 | [15] -0.004 | [16] -0.003
